# Data published in the supplement of paper PMC12819154, “High-throughput peptide-centric local stability assay extends protein–ligand identification to membrane proteins, tissues and bacteria” (Nature Structural & Molecular Biology, 2025).
# Protein sequences, listed by entry. Tags and fused reporters are not part of them. Lines headed by an entry give the natural chain unless they say otherwise; changes in a name come on top.
# UniProt P49914: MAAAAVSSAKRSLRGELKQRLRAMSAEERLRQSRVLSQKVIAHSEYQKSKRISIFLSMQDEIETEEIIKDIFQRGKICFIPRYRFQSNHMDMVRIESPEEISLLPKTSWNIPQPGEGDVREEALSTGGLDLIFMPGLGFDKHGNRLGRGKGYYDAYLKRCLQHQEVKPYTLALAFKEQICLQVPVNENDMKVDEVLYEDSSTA
# UniProt P49842: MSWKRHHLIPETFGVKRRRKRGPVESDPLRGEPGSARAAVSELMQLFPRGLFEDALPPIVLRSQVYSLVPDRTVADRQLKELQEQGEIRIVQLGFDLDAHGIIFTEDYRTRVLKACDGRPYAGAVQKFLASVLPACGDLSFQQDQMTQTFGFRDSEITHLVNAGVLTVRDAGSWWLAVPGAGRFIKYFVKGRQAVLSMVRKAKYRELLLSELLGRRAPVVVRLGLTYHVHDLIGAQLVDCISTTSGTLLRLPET
# UniProt P54105: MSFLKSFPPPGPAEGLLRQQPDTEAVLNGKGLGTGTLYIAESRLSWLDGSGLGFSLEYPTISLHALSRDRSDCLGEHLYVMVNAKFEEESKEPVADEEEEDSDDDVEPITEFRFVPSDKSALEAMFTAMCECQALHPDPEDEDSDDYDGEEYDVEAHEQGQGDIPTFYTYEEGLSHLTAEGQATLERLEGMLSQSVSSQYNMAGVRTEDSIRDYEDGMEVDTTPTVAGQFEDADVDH
# UniProt P52737: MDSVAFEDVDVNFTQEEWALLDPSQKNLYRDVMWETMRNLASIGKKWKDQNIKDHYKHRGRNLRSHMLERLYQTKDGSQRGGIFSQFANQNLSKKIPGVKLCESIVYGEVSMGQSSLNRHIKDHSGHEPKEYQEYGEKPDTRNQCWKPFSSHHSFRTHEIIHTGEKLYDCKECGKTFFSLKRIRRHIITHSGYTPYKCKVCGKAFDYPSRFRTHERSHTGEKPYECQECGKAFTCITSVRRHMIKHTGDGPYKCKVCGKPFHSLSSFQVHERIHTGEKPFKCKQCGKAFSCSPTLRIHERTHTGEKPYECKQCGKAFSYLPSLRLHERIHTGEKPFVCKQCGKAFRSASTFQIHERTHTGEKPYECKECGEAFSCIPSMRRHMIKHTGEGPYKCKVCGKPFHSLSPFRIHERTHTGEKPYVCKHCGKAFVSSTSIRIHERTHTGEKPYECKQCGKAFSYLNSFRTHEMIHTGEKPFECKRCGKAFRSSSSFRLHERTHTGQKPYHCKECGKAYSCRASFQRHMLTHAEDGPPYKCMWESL
# UniProt P49736, whole entry: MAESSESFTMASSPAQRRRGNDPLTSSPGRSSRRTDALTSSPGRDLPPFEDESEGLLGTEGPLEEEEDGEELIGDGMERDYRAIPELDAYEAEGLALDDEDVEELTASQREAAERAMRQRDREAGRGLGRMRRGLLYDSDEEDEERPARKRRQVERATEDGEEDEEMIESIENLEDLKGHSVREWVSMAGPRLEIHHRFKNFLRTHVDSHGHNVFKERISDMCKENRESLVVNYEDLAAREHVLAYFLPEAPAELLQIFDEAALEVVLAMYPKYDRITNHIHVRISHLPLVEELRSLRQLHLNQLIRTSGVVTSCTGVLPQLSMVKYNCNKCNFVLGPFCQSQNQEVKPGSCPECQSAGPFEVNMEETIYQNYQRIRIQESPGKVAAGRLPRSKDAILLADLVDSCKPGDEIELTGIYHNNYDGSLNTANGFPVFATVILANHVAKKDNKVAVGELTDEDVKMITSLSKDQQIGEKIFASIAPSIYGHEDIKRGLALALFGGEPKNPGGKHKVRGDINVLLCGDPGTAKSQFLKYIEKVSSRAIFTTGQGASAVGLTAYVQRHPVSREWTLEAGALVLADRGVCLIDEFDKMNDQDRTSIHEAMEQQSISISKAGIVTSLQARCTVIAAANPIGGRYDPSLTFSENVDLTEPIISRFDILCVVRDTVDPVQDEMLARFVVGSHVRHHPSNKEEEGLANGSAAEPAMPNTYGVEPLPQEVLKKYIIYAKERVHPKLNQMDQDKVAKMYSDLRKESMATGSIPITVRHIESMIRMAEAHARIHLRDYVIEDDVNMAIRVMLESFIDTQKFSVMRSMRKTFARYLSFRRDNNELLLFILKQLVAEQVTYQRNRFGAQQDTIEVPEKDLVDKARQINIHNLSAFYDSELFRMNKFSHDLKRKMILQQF
# UniProt P52895: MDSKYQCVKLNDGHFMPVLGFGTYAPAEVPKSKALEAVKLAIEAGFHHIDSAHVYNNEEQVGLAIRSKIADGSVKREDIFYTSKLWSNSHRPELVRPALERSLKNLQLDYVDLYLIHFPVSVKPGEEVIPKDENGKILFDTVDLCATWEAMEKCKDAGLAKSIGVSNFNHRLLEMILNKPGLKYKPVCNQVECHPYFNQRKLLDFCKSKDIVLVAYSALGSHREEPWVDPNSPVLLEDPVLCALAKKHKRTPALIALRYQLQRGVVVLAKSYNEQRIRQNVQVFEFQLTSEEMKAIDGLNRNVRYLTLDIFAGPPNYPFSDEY
# UniProt P49006: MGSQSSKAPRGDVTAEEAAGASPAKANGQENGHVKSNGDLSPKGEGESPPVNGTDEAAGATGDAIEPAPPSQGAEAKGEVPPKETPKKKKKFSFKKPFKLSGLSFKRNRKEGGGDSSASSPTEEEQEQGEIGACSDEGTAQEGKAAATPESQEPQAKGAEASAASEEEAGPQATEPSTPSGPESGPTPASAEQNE
# UniProt P51114, whole entry: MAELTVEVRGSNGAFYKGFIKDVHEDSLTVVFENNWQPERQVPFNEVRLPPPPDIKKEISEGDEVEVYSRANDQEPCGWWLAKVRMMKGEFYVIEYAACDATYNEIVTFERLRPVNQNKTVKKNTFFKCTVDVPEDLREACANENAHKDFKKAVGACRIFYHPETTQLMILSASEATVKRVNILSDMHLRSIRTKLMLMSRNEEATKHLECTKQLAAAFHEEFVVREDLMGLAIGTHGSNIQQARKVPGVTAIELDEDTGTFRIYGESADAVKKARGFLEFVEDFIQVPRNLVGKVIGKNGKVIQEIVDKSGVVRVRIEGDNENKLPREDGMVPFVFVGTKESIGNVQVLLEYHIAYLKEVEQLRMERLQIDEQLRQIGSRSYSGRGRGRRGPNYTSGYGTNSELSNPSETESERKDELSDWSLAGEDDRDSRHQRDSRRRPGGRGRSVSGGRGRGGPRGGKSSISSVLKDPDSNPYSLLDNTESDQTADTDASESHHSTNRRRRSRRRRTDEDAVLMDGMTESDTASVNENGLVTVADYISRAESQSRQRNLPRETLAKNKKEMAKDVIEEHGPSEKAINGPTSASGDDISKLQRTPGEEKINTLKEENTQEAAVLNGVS
# UniProt P51795: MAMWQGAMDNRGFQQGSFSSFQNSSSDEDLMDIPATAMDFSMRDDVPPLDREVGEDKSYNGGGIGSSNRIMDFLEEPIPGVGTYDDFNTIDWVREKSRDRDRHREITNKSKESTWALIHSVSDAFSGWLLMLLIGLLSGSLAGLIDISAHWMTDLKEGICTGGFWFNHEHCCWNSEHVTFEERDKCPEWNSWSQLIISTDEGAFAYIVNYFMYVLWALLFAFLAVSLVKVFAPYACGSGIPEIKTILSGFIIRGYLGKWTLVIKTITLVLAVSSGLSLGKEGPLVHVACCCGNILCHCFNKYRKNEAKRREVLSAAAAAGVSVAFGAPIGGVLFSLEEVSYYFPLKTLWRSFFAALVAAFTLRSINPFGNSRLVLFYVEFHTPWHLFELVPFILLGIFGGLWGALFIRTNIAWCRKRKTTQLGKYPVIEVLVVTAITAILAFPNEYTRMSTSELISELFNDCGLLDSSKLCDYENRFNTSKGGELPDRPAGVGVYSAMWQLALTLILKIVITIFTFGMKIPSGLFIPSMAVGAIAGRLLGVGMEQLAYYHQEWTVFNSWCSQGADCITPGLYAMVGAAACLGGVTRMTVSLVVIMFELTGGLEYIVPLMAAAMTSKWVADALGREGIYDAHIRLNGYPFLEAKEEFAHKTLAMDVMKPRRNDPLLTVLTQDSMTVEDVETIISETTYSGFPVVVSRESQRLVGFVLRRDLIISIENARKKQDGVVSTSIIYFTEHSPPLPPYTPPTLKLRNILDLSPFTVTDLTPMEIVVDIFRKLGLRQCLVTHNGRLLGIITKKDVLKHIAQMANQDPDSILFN
# The other results are listed elsewhere or left out. Most values lie at the level of the controls, where differences are scatter.
# Compound: CN[C@@H]1C[C@H]2O[C@@](C)([C@@H]1OC)n1c3ccccc3c3c4c(c5c6ccccc6n2c5c31)C(=O)NC4 [staurosporine]
# Assay: log2 fold change of tryptic peptide abundance, ligand vs vehicle (limited proteolysis) (log2 ratio); higher = more trypsin-susceptible (destabilized)
# Conditions: ligand concentration: 20 uM; sample: K562 cleared lysate; digestion: 4 min, 22 C (HT-PELSA RT4min, Orbitrap Astral)
row,Target,log2 fold change
1,"MTHFS (peptide sequence: LRAMSAEER, peptide start residue: 21) (UniProt P49914)",0.541
2,"STK19 (peptide sequence: DSEITHLVNAGVLTVR, peptide start residue: 268) (UniProt P49842)",0.291
3,"CLNS1A (peptide sequence: DRSDCLGEHLYVMVNAK, peptide start residue: 69) (UniProt P54105)",-0.196
4,"UniProt P52737 (peptide sequence: AFTCITSVR, peptide start residue: 232)",-0.344
5,"MCM2 (peptide sequence: ITNHIHVR, peptide start residue: 277) (UniProt P49736)",0.335
6,"AKR1C2 (peptide sequence: LLEMILNKPGLK, peptide start residue: 172) (UniProt P52895)",0.0442
7,"FNTB (peptide sequence: FNHLVPR, peptide start residue: 64) (UniProt P49356)",-0.183
8,"TUFM (peptide sequence: ARGITINAAHVEYSTAAR, peptide start residue: 106) (UniProt P49411)",0.65
9,"MARCKSL1 (peptide sequence: GEVPPKETPK, peptide start residue: 78) (UniProt P49006)",0.19
10,"FXR1 (peptide sequence: DVIEEHGPSEK, peptide start residue: 568) (UniProt P51114)",-0.281
11,"CLCN5 (peptide sequence: QCLVTHNGR, peptide start residue: 782) (UniProt P51795)",0.576

# Random excerpt: two records from the list, in no set order.
row,Target,log2 fold change
11,"CLCN5 (peptide sequence: QCLVTHNGR, peptide start residue: 782) (UniProt P51795)",0.576
9,"MARCKSL1 (peptide sequence: GEVPPKETPK, peptide start residue: 78) (UniProt P49006)",0.19
